Results from PMC9816786.
No constants are given. Whether binding was seen depends on the method and setting. In cells and extracts the contact can be indirect. Binding can be weak; no strength is given.

Protein sequences, listed by entry. Tags and fused reporters are not part of them. Lines headed by an entry give the natural chain unless they say otherwise; changes in a name come on top.
UniProt Q01518: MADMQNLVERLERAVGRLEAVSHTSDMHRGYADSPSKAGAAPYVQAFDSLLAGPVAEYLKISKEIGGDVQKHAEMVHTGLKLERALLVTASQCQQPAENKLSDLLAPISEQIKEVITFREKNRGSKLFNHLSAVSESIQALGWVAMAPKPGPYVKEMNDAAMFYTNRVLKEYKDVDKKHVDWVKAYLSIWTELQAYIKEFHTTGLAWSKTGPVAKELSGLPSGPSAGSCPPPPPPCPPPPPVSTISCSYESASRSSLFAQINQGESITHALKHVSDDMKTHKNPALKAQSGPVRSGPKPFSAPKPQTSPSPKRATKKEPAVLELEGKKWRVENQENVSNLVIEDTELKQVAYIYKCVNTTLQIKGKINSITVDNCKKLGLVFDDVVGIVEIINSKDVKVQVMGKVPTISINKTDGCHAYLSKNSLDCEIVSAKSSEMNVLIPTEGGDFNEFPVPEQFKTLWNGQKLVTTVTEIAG
UniProt Q8NBP7: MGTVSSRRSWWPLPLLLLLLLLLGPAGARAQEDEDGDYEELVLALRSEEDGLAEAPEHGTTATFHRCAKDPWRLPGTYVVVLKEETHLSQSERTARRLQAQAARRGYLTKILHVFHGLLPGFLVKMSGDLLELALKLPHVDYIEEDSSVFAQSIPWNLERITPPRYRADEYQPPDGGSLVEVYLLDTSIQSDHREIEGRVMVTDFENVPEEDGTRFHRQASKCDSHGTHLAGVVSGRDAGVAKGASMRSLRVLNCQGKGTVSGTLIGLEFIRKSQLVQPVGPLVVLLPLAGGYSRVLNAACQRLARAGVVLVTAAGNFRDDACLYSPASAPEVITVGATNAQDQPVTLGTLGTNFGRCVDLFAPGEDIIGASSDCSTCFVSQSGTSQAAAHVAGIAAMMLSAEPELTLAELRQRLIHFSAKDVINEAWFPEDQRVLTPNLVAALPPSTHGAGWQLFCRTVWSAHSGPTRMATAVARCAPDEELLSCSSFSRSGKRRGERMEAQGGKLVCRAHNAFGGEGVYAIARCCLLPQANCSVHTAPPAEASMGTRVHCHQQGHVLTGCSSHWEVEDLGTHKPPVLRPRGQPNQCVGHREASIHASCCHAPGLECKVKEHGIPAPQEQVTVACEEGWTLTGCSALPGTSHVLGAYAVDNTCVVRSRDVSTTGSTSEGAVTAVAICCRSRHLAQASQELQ

Biological target: HA-tagged CAP1 (human) (UniProt Q01518)
Assay: co-IP; PCSK9 or PCSK9-Δ33-58 and HA-tagged CAP1 expressed in HepG2 PCSK9−/− cells; serum free medium precipitated with HA-coupled agarose beads; blots with anti-CAP1 and anti-PCSK9

Row | binding | Substance
1 | binds | V5-tagged PCSK9 (PCSK9-WT, pIRES2-EGFP-hPCSK9-WT-V5) (from UniProt Q8NBP7)
2 | binds | PCSK9-Δ33-58 (from UniProt Q8NBP7)
